Laboratory results: PubChem BioAssay AID1259254 (NCATS, 2017)
Purpose: 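Gene knock-downs that lead to re-replication, shown by excess G2 DNA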 (primary screen). System: human HCT116 colorectal cancer cells. Reagent: single siRNA against human genes. Duration: 3 days. Measured: 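Imaged Hoechst DNA stain sorts each cell into a cycle phase by DNA amount; per plate, G2 fraction set to 0% for non-targeting and 100% for GMNN siRNA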. Reading the numbers: G2 robust z-score: higher = more G2 cells, more excess DNA replication. Active means: 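Active siRNAs have a G2 robust z of 5 or more median absolute deviations over the median, which in these data means about 38% or higher of GMNN control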.
Shown is one part, drawn at random, of about 59,000 reagents tested. Of all reagents, about 1,550 (2.6%) got an active call. 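G2 share is only a proxy for re-replication; each gene was hit by three separate siRNAs, and active genes were retested.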 The numbers tell different reagents against one gene apart. Further read-outs or replicates are left out here. No sequences are given here. Not stated in the record: the amount of reagent.

gene symbol,siRNA no.,G2 robust z-score,Call
"PSMD14 (proteasome 26S subunit, non-ATPase 14)",1,-0.591,inactive
"PSMD14 (proteasome 26S subunit, non-ATPase 14)",2,1.09,inactive
"PSMD14 (proteasome 26S subunit, non-ATPase 14)",3,1.05,inactive
ZNF837 (zinc finger protein 837),1,0.885,inactive
ZNF837 (zinc finger protein 837),2,0.00976,inactive
ZNF837 (zinc finger protein 837),3,1.12,inactive
RAP1GAP (RAP1 GTPase activating protein),1,1.34,inactive
RAP1GAP (RAP1 GTPase activating protein),2,0.407,inactive
RAP1GAP (RAP1 GTPase activating protein),3,-0.924,inactive
"ZNF137P (zinc finger protein 137, pseudogene)",1,-0.9,inactive
"ZNF137P (zinc finger protein 137, pseudogene)",2,0.309,inactive
"ZNF137P (zinc finger protein 137, pseudogene)",3,2.58,inactive
"PPM1F (protein phosphatase, Mg2+/Mn2+ dependent 1F)",1,0.172,inactive
"PPM1F (protein phosphatase, Mg2+/Mn2+ dependent 1F)",2,-0.45,inactive
"PPM1F (protein phosphatase, Mg2+/Mn2+ dependent 1F)",3,5.6,active
ZNF408 (zinc finger protein 408),1,-0.423,inactive
ZNF408 (zinc finger protein 408),2,0.23,inactive
ZNF408 (zinc finger protein 408),3,0.0426,inactive
POLR1G (RNA polymerase I subunit G),1,-0.275,inactive
POLR1G (RNA polymerase I subunit G),2,0.835,inactive
POLR1G (RNA polymerase I subunit G),3,0.594,inactive
CCDC42 (coiled-coil domain containing 42),1,2.05,inactive
CCDC42 (coiled-coil domain containing 42),2,0.132,inactive
CCDC42 (coiled-coil domain containing 42),3,-0.654,inactive
ZNF534 (zinc finger protein 534),1,1.33,inactive
ZNF534 (zinc finger protein 534),2,-0.0117,inactive
ZNF534 (zinc finger protein 534),3,0.502,inactive
SELENOT (selenoprotein T),1,-0.727,inactive
SELENOT (selenoprotein T),2,-0.27,inactive
SELENOT (selenoprotein T),3,-0.106,inactive
BEND2 (BEN domain containing 2),1,-0.59,inactive
BEND2 (BEN domain containing 2),2,2.01,inactive
BEND2 (BEN domain containing 2),3,-0.191,inactive
OR10A5 (olfactory receptor family 10 subfamily A member 5),1,0.793,inactive
OR10A5 (olfactory receptor family 10 subfamily A member 5),2,2.77,inactive
OR10A5 (olfactory receptor family 10 subfamily A member 5),3,0.506,inactive
MYF6 (myogenic factor 6),1,0.256,inactive
MYF6 (myogenic factor 6),2,1.25,inactive
MYF6 (myogenic factor 6),3,-1.36,inactive
HIBADH (3-hydroxyisobutyrate dehydrogenase),1,3.53,inactive
HIBADH (3-hydroxyisobutyrate dehydrogenase),2,-0.889,inactive
HIBADH (3-hydroxyisobutyrate dehydrogenase),3,-0.484,inactive
SERTAD4-AS1 (SERTAD4 antisense RNA 1),1,-0.774,inactive
SERTAD4-AS1 (SERTAD4 antisense RNA 1),2,-0.565,inactive
SERTAD4-AS1 (SERTAD4 antisense RNA 1),3,-0.268,inactive

Quoted from the listing for reference:
gene symbol,siRNA no.,G2 robust z-score,Call
MYF6 (myogenic factor 6),1,0.256,inactive
MYF6 (myogenic factor 6),2,1.25,inactive
MYF6 (myogenic factor 6),3,-1.36,inactive

More records follow.
gene symbol,siRNA no.,G2 robust z-score,Call
MTA1 (metastasis associated 1),1,-0.808,inactive
MTA1 (metastasis associated 1),2,-0.932,inactive
MTA1 (metastasis associated 1),3,-0.356,inactive
ANKRD26 (ankyrin repeat domain 26),1,-1.21,inactive
ANKRD26 (ankyrin repeat domain 26),2,0.526,inactive
ANKRD26 (ankyrin repeat domain 26),3,7.32,active
XTBD1P1 (XTBD1 pseudogene 1),1,-0.554,inactive
XTBD1P1 (XTBD1 pseudogene 1),2,-0.808,inactive
XTBD1P1 (XTBD1 pseudogene 1),3,-0.164,inactive
SPATA16 (spermatogenesis associated 16),1,-1.29,inactive
SPATA16 (spermatogenesis associated 16),2,0.38,inactive
SPATA16 (spermatogenesis associated 16),3,-0.895,inactive
REM2 (RRAD and GEM like GTPase 2),1,-0.597,inactive
REM2 (RRAD and GEM like GTPase 2),2,0.178,inactive
REM2 (RRAD and GEM like GTPase 2),3,-0.124,inactive
RPS4X (ribosomal protein S4 X-linked),1,3.74,inactive
RPS4X (ribosomal protein S4 X-linked),2,3.58,inactive
RPS4X (ribosomal protein S4 X-linked),3,0.487,inactive
RPS28P6 (ribosomal protein S28 pseudogene 6),1,1.07,inactive
RPS28P6 (ribosomal protein S28 pseudogene 6),2,0.297,inactive
RPS28P6 (ribosomal protein S28 pseudogene 6),3,-0.0845,inactive
DCHS1 (dachsous cadherin-related 1),1,0.485,inactive
DCHS1 (dachsous cadherin-related 1),2,-1.89,inactive
DCHS1 (dachsous cadherin-related 1),3,-0.31,inactive
